The text below walks through data of patent publication US8518891B2 (priority 2006, dated 2013).

For part of these data: Strings that start with PEPTIDE1 are HELM notation: dots part the residues, brackets hold end groups and non-standard residues. Numbered stars: 1 amine (or outer) side, 2 acyl side, 3 side chain; on linkers, the order of the positions; unused ones are H or OH. Square brackets hold non-standard residues; d marks the D form. Peptide text beside a SMILES is read from it. * marks the point of attachment. X4 = NP(=O)(OCc1c(F)cc(N*)cc1F)N(CCCl)CCCl; X2 = NP(=O)(OCc1ccc(N*)c(F)c1)N(CCCl)CCCl; X1 = NP(=O)(OCc1ccc(N*)cc1F)N(CCCl)CCCl; X3 = NP(=O)(OCc1ccc(N*)cc1)N(CCCl)CCCl; Glutaryl = O=C(CCCC(=O)[*:2])[*:1]; Hyp = O=C(O)[C@@H]1C[C@@H](O)CN1; Chg = N[C@H](C(=O)O)C1CCCCC1 A value given as a limit tells only on which side of the number the result lay.

Tested on in the first series: not listed separately
Description: general procedure: Fmoc solid-phase peptide synthesis; SASRIN (2-methoxy-4-alkoxybenzyl alcohol, 200-400 mesh, Bachem) or WANG-type HMP resin (Advanced Chemtech); DMAP/DIC (SASRIN) or HOBt/DMAP/DIC (WANG) for first amino acid; HBTU/DIPEA for s. The conditions noted are these: conjugation step.
In turn, “PEPTIDE1{[Glt].[Hyp].A.S.[Chg].Q.[NH-3F-Bn-PM]}$$$$V2.0” registered a conjugation yield of 28%.

Compound “PEPTIDE1{[Glt].[Hyp].A.S.[Chg].Q.[NH-2F-Bn-PM]}$$$$V2.0” showed a conjugation yield of 38%.

As for “PEPTIDE1{[Glt].[Hyp].A.S.[Chg].Q.[NH-2,6-diF-Bn-PM]}$$$$V2.0”, the conjugation yield is on record as 40%.

Compound “PEPTIDE1{[Glt].[Hyp].A.S.[Chg].Q.[NH-Bn-PM]}$$$$V2.0” displayed a conjugation yield of 30%.

The compound “PEPTIDE1{[Glt].[Hyp].A.S.[Chg].Q.[NH-tetraF-Bn-PM]}$$$$V2.0” gave a conjugation yield of 30%.

The test system of another series is LNCaP human prostate cancer cell line. Description: In vitro antiproliferative activity assay in PSA-producing LNCaP cells. It is filed as cell-based.
Settings: not given
The source says:
Furthermore, analogs 5b and 5c were synthesized with an electron-withdrawing fluorine atom at C2 (5b) and C3 (5c), respectively.
For `C[C@H](NC(=O)[C@@H]1C[C@@H](O)CN1C(=O)CCCC(=O)O)C(=O)N[C@@H](CO)C(=O)N[C@H](C(=O)N[C@@H](CCC(N)=O)C(=O)Nc1ccc(COP(N)(=O)N(CCCl)CCCl)c(F)c1)C1CCCCC1` (stereo partly drawn) [5b, glutaryl-Hyp-Ala-Ser-Chg-Gln-NH-2-fluorobenzyl phosphoramide mustard] (Glutaryl-[Hyp]AS[Chg]Q-X1), the “Selectivity (ratio of IC50 in DU145 and IC50 in LNCaP)” value was more than 19.

On to `C[C@H](NC(=O)[C@@H]1C[C@@H](O)CN1C(=O)CCCC(=O)O)C(=O)N[C@@H](CO)C(=O)N[C@H](C(=O)N[C@@H](CCC(N)=O)C(=O)Nc1ccc(COP(N)(=O)N(CCCl)CCCl)cc1F)C1CCCCC1` (stereo partly drawn) [5c, glutaryl-Hyp-Ala-Ser-Chg-Gln-NH-3-fluorobenzyl phosphoramide mustard] (Glutaryl-[Hyp]AS[Chg]Q-X2), for which the “Selectivity (ratio of IC50 in DU145 and IC50 in LNCaP)” value is reported as more than 3.

`C[C@H](NC(=O)[C@@H]1C[C@@H](O)CN1C(=O)CCCC(=O)O)C(=O)N[C@@H](CO)C(=O)N[C@H](C(=O)N[C@@H](CCC(N)=O)C(=O)Nc1cc(F)c(COP(N)(=O)N(CCCl)CCCl)c(F)c1)C1CCCCC1` (stereo partly drawn) [5d, glutaryl-Hyp-Ala-Ser-Chg-Gln-NH-2,6-difluorobenzyl phosphoramide mustard] (Glutaryl-[Hyp]AS[Chg]Q-X4): the “Selectivity (ratio of IC50 in DU145 and IC50 in LNCaP)” value is more than 5.

On to `C[C@H](NC(=O)[C@@H]1C[C@@H](O)CN1C(=O)CCCC(=O)O)C(=O)N[C@@H](CO)C(=O)N[C@H](C(=O)N[C@@H](CCC(N)=O)C(=O)Nc1ccc(COP(N)(=O)N(CCCl)CCCl)cc1)C1CCCCC1` (stereo partly drawn) [5a, glutaryl-Hyp-Ala-Ser-Chg-Gln-NH-benzyl phosphoramide mustard] (Glutaryl-[Hyp]AS[Chg]Q-X3), for which the “Selectivity (ratio of IC50 in DU145 and IC50 in LNCaP)” value is 3.
